Data taken from article PMC12500468.
No constants are given. Whether binding was seen depends on the method and setting. In cells and extracts the contact can be indirect. Some binding calls cover weakened binding; strength is not graded here. Sequences can lack the tags named with a protein.

The chains behind the UniProt entries cited, without tags or fusion partners.
UniProt Q13620: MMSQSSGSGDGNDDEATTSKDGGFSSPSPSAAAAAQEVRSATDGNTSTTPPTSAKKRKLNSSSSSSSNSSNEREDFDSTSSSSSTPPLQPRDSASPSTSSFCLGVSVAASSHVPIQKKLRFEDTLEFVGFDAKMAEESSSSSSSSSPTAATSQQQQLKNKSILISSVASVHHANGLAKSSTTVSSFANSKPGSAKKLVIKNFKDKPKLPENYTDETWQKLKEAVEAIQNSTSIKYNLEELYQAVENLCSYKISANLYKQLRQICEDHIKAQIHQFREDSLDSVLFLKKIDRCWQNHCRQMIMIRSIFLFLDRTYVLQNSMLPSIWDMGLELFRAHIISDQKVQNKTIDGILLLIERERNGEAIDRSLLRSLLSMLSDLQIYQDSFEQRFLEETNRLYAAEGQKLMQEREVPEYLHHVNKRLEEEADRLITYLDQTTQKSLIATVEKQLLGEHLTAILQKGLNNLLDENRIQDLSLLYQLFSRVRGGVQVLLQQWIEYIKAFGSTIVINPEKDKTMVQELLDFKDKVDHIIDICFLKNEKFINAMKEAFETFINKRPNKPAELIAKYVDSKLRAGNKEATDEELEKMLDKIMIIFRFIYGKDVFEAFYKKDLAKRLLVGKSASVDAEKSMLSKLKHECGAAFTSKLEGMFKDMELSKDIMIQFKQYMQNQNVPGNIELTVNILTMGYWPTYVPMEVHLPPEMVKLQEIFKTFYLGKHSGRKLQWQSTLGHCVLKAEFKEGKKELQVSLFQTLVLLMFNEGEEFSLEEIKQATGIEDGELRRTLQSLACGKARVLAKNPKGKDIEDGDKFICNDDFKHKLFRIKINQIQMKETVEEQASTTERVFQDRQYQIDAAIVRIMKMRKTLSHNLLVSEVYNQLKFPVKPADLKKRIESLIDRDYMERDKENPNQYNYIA
UniProt O95817: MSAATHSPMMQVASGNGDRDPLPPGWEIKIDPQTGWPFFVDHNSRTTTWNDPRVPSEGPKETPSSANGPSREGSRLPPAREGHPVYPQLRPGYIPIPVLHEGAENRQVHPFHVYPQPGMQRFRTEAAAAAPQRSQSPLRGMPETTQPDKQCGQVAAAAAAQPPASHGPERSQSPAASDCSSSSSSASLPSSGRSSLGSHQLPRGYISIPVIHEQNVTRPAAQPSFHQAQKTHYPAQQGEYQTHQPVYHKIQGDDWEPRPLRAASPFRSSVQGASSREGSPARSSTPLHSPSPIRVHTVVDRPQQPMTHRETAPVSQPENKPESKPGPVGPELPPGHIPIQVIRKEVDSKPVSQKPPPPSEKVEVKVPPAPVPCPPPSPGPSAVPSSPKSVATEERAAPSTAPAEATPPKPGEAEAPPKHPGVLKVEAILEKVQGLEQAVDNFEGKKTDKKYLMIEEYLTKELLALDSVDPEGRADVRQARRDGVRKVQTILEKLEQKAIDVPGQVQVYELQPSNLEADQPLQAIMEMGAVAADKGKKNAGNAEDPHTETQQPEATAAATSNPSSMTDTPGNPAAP
UniProt P46379: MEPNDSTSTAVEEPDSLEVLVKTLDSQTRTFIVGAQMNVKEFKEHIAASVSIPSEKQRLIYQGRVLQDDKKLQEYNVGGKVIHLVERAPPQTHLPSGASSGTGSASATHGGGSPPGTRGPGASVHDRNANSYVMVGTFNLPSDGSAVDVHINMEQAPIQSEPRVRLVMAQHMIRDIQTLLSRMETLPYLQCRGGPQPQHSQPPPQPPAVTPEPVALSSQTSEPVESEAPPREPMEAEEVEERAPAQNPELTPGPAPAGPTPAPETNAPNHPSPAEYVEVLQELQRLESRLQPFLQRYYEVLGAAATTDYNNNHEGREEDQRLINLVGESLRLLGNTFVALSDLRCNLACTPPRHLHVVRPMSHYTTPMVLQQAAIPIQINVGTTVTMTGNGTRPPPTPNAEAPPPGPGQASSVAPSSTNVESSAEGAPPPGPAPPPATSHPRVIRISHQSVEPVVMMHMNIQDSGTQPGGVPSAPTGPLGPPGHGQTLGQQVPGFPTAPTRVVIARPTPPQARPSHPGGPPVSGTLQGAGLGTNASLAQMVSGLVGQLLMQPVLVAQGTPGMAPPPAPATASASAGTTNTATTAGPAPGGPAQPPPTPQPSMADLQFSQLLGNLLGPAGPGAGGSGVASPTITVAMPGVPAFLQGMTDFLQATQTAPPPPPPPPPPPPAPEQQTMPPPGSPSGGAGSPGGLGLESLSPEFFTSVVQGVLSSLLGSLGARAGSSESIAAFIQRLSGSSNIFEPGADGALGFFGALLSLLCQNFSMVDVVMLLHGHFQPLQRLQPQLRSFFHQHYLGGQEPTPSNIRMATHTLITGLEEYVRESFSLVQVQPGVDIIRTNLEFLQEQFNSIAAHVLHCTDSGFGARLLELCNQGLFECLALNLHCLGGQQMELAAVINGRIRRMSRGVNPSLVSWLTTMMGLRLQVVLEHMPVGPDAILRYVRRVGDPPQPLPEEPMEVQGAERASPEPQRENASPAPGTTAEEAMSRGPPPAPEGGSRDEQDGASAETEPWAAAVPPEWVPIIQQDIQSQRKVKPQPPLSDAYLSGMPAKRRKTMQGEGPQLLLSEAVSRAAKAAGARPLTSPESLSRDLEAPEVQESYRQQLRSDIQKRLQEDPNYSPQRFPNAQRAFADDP
UniProt Q13200: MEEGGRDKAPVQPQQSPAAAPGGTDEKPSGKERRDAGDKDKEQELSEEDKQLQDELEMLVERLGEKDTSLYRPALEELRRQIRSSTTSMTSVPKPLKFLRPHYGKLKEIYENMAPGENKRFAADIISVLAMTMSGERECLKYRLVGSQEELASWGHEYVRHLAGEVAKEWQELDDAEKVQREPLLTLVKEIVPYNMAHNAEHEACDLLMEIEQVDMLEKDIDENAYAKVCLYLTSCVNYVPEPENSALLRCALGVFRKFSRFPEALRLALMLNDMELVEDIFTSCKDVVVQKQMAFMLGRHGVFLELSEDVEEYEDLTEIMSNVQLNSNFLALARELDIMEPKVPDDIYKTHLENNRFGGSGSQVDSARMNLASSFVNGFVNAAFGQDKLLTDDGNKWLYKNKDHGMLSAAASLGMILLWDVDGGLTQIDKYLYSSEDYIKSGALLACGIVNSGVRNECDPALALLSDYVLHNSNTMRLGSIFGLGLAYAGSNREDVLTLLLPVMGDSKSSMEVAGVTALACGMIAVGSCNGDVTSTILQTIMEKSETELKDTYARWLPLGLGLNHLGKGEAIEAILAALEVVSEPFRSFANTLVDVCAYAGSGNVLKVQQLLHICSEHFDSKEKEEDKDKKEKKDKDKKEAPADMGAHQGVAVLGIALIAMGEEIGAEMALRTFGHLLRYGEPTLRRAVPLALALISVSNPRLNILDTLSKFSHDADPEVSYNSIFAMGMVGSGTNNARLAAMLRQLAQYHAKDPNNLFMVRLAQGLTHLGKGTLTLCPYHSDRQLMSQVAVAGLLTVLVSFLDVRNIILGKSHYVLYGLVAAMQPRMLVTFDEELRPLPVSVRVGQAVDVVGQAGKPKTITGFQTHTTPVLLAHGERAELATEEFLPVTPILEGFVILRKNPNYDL
UniProt P35579: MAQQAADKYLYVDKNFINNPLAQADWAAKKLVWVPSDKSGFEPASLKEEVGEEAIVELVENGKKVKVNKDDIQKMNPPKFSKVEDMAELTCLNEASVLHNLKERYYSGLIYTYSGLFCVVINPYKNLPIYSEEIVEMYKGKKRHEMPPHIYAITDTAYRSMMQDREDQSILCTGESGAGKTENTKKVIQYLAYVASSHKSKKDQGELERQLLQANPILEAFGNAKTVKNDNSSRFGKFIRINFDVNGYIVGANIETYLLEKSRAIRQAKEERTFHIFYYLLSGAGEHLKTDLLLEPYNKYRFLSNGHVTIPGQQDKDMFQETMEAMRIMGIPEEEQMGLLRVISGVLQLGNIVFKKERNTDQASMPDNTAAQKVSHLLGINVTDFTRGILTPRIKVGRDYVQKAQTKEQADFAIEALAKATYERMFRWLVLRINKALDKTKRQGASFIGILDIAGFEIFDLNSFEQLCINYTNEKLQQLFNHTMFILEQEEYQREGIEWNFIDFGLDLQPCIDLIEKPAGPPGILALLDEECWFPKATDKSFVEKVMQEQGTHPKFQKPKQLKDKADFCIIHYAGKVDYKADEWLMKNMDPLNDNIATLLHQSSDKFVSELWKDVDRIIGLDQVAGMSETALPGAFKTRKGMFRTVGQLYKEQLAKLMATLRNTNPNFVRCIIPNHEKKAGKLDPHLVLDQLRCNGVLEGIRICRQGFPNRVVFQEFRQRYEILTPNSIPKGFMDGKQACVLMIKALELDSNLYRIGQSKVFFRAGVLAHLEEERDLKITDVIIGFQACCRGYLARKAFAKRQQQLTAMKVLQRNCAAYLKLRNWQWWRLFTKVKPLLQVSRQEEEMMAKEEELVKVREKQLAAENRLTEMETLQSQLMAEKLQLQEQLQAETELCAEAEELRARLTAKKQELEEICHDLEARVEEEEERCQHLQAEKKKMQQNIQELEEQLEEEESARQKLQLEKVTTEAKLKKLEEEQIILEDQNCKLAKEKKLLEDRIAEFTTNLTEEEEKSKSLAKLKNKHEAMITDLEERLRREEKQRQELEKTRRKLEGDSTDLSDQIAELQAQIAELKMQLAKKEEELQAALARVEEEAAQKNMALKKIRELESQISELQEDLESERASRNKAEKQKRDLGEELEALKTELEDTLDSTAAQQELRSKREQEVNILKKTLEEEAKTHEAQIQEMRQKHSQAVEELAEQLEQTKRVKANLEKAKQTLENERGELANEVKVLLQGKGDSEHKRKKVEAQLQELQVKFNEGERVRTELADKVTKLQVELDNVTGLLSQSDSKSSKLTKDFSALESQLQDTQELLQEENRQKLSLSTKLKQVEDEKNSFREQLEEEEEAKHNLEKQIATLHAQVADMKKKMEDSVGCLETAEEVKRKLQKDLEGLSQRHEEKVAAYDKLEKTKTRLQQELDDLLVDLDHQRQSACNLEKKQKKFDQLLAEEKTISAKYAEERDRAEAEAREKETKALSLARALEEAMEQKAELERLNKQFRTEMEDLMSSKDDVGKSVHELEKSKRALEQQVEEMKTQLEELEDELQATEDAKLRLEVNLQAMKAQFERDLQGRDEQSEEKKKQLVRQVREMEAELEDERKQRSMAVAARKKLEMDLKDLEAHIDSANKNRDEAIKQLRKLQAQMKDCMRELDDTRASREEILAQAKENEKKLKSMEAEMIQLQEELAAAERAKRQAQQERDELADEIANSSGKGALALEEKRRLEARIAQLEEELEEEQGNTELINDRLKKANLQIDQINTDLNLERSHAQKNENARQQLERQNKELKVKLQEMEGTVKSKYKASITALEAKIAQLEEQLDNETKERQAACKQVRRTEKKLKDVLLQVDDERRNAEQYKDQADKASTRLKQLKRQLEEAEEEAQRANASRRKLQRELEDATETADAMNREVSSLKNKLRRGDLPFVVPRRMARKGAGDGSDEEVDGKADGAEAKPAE

Target: T1, LZTR1-HA (UniProt Q8N653)
T1 sequence: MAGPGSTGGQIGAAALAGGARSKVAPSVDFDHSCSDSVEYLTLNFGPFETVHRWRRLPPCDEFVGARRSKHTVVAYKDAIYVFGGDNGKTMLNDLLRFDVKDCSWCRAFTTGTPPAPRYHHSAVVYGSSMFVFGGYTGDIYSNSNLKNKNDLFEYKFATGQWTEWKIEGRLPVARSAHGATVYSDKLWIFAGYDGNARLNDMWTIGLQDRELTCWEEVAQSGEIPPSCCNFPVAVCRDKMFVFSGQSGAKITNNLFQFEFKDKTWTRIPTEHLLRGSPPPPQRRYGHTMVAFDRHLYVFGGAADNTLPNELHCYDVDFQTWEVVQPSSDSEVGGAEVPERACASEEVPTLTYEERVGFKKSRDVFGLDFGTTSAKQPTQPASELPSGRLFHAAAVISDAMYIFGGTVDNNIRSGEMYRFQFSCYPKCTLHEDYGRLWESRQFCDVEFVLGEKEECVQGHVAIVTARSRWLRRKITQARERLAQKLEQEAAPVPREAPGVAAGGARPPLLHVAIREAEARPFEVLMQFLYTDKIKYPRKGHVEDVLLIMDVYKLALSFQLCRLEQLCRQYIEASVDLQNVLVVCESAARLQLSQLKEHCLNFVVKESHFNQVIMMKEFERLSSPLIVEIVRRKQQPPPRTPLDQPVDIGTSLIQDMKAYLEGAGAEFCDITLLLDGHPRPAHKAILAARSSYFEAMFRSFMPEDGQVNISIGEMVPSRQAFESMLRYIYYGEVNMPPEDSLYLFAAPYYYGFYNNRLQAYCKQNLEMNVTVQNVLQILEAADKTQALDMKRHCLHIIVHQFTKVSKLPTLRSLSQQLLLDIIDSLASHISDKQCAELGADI
Assay: co-IP; LZTR1-HA precipitated from YUHIMO lysates with anti-HA magnetic beads; eluted with SDS sample buffer; Western blot; non-induced cells as control

| binding | Substance |
| --- | --- |
| binds | CUL4B (from UniProt Q13620 1-913) |
| binds | sequestosome 1 (SQSTM1/p62) (from UniProt Q13501 1-440) |
| binds | USP9X (from UniProt Q93008 1-2554) |
| binds | BAG3 (from UniProt O95817 1-575) |

The remaining lines, values behind:

| Substance | binding |
| --- | --- |
| BAG6 (from UniProt P46379 1-1132) | binds |
| PSMD2 (proteasome 26S subunit ubiquitin receptor, non-ATPase 2) (from UniProt Q13200 1-908) | binds |
| myosin IIa (MYH9) (from UniProt P35579 1-1960) | binds |
